Reference: patent US20260265316A1 (DBV Technologies, priority 2023, published 2026)

B1: 4K (SEQ ID NO 46) (peptide)
chain: QLQPFPQPELPYPQPELPYPQPELPYPQPQPKKKKPQPEQPEQPFPEQPQKKKKPQQPFPQPEQPFPWQPQKKKKPSGEGSFQPSQENPQ

Experiment: peptide synthesis
Settings: whole synthesis, acetate; for final HPLC purity: 215 nm

| Molecule | final HPLC purity | isolated yield |
| --- | --- | --- |
| H-PQQPFPQPEQPFPWQPQ-NH2 | 97.6% | 58.9% |
| H-PSGEGSFQPSQENPQ-NH2 | 98.5% | 43.6% |
| Ac-QLQPFPQPELPYPQPELPYPQPELPYPQPQP-NH2 | 97.0% | 46.5% |
| H-PQPEQPEQPFPEQPQ-NH2 | 96.4% | 65.1% |
| B1 | 96.6% | 22.0% |
